Measurements from the supplement of paper PMC11098740.
Structures can show the parent of a compound that is named as a salt. The list shows a part of the results. Many values rest on one well or one pass, so single values are uncertain.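 Pooled together, 41 HAP1 clones carry intronic fluorescent tags on 61 cancer-associated proteins, and each clone is recognized by its imaging pattern. Measurements are benchmarked against DMSO-treated control wells. dBET6, a BRD4 degrader, served as the positive control.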 Where a SMILES comes first, the peptide text is derived from it. Bridges are numbered along the chain shown (N, C = ends). [ ]: non-standard residue; d: D form. hArg = N=C(N)NCCCC[C@H](N)C(=O)O; Mpa = O=C(O)CCS

Chains of the proteins cited; added tags and fusions are not shown.
UniProt O14980, whole entry: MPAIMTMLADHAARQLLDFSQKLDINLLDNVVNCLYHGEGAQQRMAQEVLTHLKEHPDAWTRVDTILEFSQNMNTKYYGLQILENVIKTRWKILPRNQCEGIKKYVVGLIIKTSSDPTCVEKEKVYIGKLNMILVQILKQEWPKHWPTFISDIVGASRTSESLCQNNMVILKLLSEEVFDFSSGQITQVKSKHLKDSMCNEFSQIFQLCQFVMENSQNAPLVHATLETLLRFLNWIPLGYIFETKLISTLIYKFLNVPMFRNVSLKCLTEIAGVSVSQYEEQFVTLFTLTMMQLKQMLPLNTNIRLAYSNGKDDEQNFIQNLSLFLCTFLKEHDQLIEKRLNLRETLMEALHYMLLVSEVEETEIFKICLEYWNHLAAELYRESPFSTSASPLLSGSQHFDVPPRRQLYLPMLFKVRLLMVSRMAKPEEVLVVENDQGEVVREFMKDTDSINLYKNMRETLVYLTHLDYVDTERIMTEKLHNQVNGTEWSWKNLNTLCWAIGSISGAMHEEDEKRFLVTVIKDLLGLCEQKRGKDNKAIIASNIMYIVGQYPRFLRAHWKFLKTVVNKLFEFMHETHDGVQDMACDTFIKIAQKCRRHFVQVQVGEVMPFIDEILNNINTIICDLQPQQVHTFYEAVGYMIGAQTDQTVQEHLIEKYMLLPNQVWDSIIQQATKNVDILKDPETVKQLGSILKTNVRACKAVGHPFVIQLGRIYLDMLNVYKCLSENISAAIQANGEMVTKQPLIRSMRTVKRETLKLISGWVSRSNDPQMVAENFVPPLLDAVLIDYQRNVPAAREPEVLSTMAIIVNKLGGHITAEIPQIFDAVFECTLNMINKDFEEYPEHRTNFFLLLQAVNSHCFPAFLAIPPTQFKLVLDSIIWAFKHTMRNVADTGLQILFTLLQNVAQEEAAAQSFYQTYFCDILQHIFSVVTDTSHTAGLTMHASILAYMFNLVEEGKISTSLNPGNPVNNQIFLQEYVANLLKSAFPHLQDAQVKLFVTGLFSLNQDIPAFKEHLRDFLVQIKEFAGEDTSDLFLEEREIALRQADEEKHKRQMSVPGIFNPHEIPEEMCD

The molecules below were run against XPO1 (intron 15 mScarlet tag, HAP1) (UniProt O14980) (assay: XPO1 fluorescence intensity change vs DMSO (log2 fold change); higher = more XPO1 protein). Settings: 6 h.

Row | SMILES | XPO1 fluorescence intensity change (log2)
1 | CC(C)CN(C[C@@H](O)[C@H](Cc1ccccc1)NC(=O)O[C@H]1CCOC1)S(=O)(=O)c1ccc(N)cc1 [Amprenavir] (10 µM) | -0.192
2 | Cn1c(=O)c2nc[nH]c2n(C)c1=O [Theophylline] (10 µM) | 0.117
3 | N=C(N)NCCCC[C@@H]1NC(=O)CCSSC[C@@H](C(N)=O)NC(=O)[C@@H]2CCCN2C(=O)[C@H](Cc2c[nH]c3ccccc23)NC(=O)[C@H](CC(=O)O)NC(=O)CNC1=O [Eptifibatide] (10.00039278 µM) ([Mpa][hArg]GDWPC-NH2; disulfide 1-7) | 0.0335
4 | CC/C(=C(\c1ccccc1)c1ccc(OCCN(C)C)cc1)c1ccccc1 [Tamoxifen] (20 µM) | 0.103
5 | CC(C)[C@H]1CC[C@H](C(=O)N[C@H](Cc2ccccc2)C(=O)O)CC1 [Nateglinide] (10 µM) | -0.123
6 | C[C@H]1O[C@@H](O[C@H]2[C@@H](O)C[C@H](O[C@H]3[C@@H](O)C[C@H](O[C@H]4CC[C@@]5(C)[C@H](CC[C@@H]6[C@@H]5CC[C@]5(C)[C@@H](C7=CC(=O)OC7)CC[C@]65O)C4)O[C@@H]3C)O[C@@H]2C)C[C@H](O)[C@@H]1O [Digitoxin] (10.0002 µM) | 0.212
7 | CC1=NN(c2ccc(C)c(C)c2)C(=O)/C1=N\Nc1cccc(-c2cccc(C(=O)O)c2)c1O [Eltrombopag] (10 µM) | 0.169
8 | CC1=C(/C=C/C(C)=C/C=C/C(C)=C/C(=O)O)C(C)(C)CCC1 [Tretinoin] (20 µM) | 0.0309
9 | NCCc1ccc(O)c(O)c1 [Dopamine] (10.0004 µM) | -0.00119
10 | Cc1nc(-c2ccc(OCC(C)C)c(C#N)c2)sc1C(=O)O [Febuxostat] (10 µM) | -0.000336
11 | CS(=O)(=O)c1ccc(C(=O)Nc2ccc(Cl)c(-c3ccccn3)c2)c(Cl)c1 [Vismodegib] (20 µM) | 0.113
12 | CC(C)NC[C@@H](C(=O)N1CCN(c2ncnc3c2[C@H](C)C[C@H]3O)CC1)c1ccc(Cl)cc1 [Ipatasertib dihydrochloride] (20 µM) | -0.0233
13 | O=C(c1cc(Cc2n[nH]c(=O)c3ccccc23)ccc1F)N1CCN(C(=O)C2CC2)CC1 [Olaparib] (10 µM) | 0.179
14 | COCc1c(C(C)C)nc(C(C)C)c(/C=C/[C@@H](O)C[C@@H](O)CC(=O)O)c1-c1ccc(F)cc1 [Cerivastatin] (10.5 µM) | 0.134
15 | Cc1nc(Nc2ncc(C(=O)Nc3c(C)cccc3Cl)s2)cc(N2CCN(CCO)CC2)n1 [Dasatinib] (0.0213961 µM) | 0.0371
16 | CC(c1cc2ccccc2s1)N(O)C(N)=O (stereo not drawn) [Zileuton] (10 µM) | -0.164
17 | CN(C)C(=N)NC(=N)N [Metformin] (10 µM) | -0.0459
18 | CCC1(c2ccccc2)C(=O)NCNC1=O [Primidone] (10 µM) | 0.048
19 | COc1ccccc1Oc1c(NS(=O)(=O)c2ccc(C(C)(C)C)cc2)nc(-c2ncccn2)nc1OCCO [Bosentan] (9.99938 µM) | -0.0287
20 | COc1cc2nc(N3CCN(C(=O)C4CCCO4)CC3)nc(N)c2cc1OC (stereo not drawn) [Terazosin] (10 µM) | 0.21
21 | CNC(=O)c1cc(Oc2ccc(NC(=O)Nc3ccc(Cl)c(C(F)(F)F)c3)c(F)c2)ccn1 [Regorafenib] (20 µM) | -0.07
22 | C[C@]12CCC(=O)C=C1C=C[C@@H]1[C@@H]2CC[C@@]2(C)[C@H]1CC[C@@]21CCC(=O)O1 [Canrenone] (9.99944 µM) | 0.00941
23 | CC[C@]1(O)C[C@@H]2CN(CCc3c([nH]c4ccccc34)[C@@](C(=O)OC)(c3cc4c(cc3OC)N(C)[C@H]3[C@@](O)(C(=O)OC)[C@H](OC(C)=O)[C@]5(CC)C=CCN6CC[C@]43[C@@H]65)C2)C1 [Vinblastine (sulfate)] (10 µM) | 0.183
24 | O=C1C(O)=C([C@H]2CC[C@H](c3ccc(Cl)cc3)CC2)C(=O)c2ccccc21 [Atovaquone] (10 µM) | 0.00408
25 | Nc1ncn([C@@H]2O[C@H](CO)[C@@H](O)[C@H]2O)c(=O)n1 [Azacitidine] (10 µM) | -0.226
26 | c1ccc([C@H]2CN3CCSC3=N2)cc1 [Levamisole] (10 µM) | -0.0406
27 | CN[C@H]1CC[C@@H](c2ccc(Cl)c(Cl)c2)c2ccccc21 [Sertraline] (9.99956 µM) | 0.0957
28 | CCCCCCCCCCC[C@@H](C[C@@H]1OC(=O)[C@H]1CCCCCC)OC(=O)[C@H](CC(C)C)NC=O [Orlistat] (10 µM) | 0.0299

Some of these compounds in order of molar mass, low to high.
Row | SMILES | XPO1 fluorescence intensity change (log2)
27 | CN[C@H]1CC[C@@H](c2ccc(Cl)c(Cl)c2)c2ccccc21 [Sertraline] (9.99956 µM) | 0.0957
5 | CC(C)[C@H]1CC[C@H](C(=O)N[C@H](Cc2ccccc2)C(=O)O)CC1 [Nateglinide] (10 µM) | -0.123
21 | CNC(=O)c1cc(Oc2ccc(NC(=O)Nc3ccc(Cl)c(C(F)(F)F)c3)c(F)c2)ccn1 [Regorafenib] (20 µM) | -0.07
